Results published in patent publication US9023635B2, “Bacterial methods” (Imperial Innovations Limited, priority 2010, dated 2015).
For at least one compound, name, drawing or mass did not settle the structure.

Columns and labels:
[1] = test system: bacterial spore with the chimeric prkC receptor (prkC intracellular and transmembrane domain, extracellular FKBP12 domain); assay: Germination of bacterial spores expressing chimeric prkC-FKBP12 receptor; type: cell-based, Bacillus subtilis
[2] = test system: bacterial spores in the absence of the chimeric protein; assay: Germination of bacterial spores in the absence of the prkC-FKBP12 chimeric protein; type: cell-based, Bacillus subtilis

Q: CO[C@H]1C[C@@H]2CC[C@@H](C)[C@@](O)(O2)C(=O)C(=O)N2CCCC[C@H]2C(=O)O[C@H]([C@H](C)C[C@@H]2CC[C@@H](O)[C@H](OC)C2)CC(=O)[C@H](C)/C=C(\C)[C@@H](O)[C@@H](OC)C(=O)[C@H](C)C[C@H](C)/C=C/C=C/C=C/1C [rapamycin] was tested. Which “germination efficiency with increased concentration” value ([1]; FIG. 11, increased concentration of rapamycin) did it give?
A: increase in germination efficiency

Q: What about the germination of spores ([1]; spores expressing prkC-FKBP12 chimera) of the same compound?
A: stimulation of germination

Q: And the germination of spores [2]?
A: does not stimulate the germination
